{
  "source": "patent US9029080B2",
  "about": "“Screening assay for insecticides” (priority 2008, dated 2015)",
  "target": "T1, octopamine receptor (OctR, CG6919 dmOa2) (Drosophila melanogaster, UniProt Q9VCZ3)",
  "T1 construct": "expressed in transfected cells; host or cells: CHO stably expressing G-alpha-16",
  "experiment": "OctR clone 55 FLIPR Fluo-4 calcium assay",
  "assay_type": "cell-based",
  "protocol": "FIG. 62. Cells were plated at 10K/well in 384 well plates and allowed to incubate overnight at […]. The cells were assayed 18-24 hours after seeding. Media was removed and cells were dye loaded for 60 minutes with 2 μM Fluo-4. After 1 hour, dye was removed and 20 μl of buffer added to the plate and placed into FLIPR. The 1st addition was antagonist dose response curves and the 2nd addition was agonist dose response curves. Antagonists were challenged with 100 nM Octopamine. In addition, these compounds were tested in the parental cell line CHO-Galpha16.\nCells were plated at 10,000 cells/well in 50 μl into 384-well black TC plates and allowed to incubate overnight at 37° C./5% CO2. The cells were assayed 18-24 hours after seeding. Culture medium was removed by flicking and cells were dye loaded for 60 minutes with 20 μl of 2 μM Fluo-4 in assay buffer plus probenecid at 25° C. After one hour dye was removed by flicking and 20 μL of assay buffer was added, wait 5 min prior to placing into the FLIPR and run using a two-addition protocol. The first addition (20 ul, 2×) was 0.5% DMSO final in assay buffer. The second addition (20 ul, 3×) was either assay buffer or 100 nM octopamine final.",
  "data": [
    {"smiles": "CN1CCN2c3ccccc3Cc3ccccc3C2C1", "note": "(stereo not shown) [mianserin]", "values": [
      {"measurement": "IC50", "result": 267, "unit": "nM"}
    ]}
  ]
}
